According to paper PMC7867230:
Results are given in words; binding and its absence hold for the method and conditions named. Some binding calls cover weakened binding; strength is not graded here.

Amino acid sequences for entries named in this document (tags omitted). Residues count along the entry.
UniProt P00750, residues 36-562: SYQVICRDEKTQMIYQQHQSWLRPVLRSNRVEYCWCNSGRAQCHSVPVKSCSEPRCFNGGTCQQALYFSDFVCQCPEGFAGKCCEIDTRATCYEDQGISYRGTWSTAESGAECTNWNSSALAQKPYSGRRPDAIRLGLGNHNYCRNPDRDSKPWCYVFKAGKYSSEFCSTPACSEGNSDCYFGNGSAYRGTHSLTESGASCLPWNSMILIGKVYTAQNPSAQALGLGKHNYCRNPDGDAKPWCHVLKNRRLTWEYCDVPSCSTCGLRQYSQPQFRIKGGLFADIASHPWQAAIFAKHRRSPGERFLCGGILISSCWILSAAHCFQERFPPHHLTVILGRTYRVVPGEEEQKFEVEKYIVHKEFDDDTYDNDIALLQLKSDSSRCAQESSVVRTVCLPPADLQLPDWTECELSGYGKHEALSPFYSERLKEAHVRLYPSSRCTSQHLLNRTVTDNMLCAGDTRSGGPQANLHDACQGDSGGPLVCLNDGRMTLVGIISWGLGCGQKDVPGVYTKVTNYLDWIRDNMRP
UniProt P05121, residues 24-402: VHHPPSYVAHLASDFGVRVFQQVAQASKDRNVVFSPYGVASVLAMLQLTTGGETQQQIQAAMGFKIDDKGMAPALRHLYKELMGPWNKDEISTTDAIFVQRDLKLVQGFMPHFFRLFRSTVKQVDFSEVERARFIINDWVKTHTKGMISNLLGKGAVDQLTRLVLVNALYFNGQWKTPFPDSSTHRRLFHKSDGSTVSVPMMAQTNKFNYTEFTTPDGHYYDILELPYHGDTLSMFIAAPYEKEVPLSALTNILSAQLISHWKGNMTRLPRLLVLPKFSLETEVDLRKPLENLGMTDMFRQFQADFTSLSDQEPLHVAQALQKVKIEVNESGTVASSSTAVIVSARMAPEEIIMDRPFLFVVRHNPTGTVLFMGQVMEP

Target: tissue-type plasminogen activator (tPA) (UniProt P00750)
Assay: SDS-PAGE of the SDS-stable covalent serpin/protease complex; 5 uL of 4.6 uM wild type PAI-1 with 5 uL buffer or compound (PBS pH 7.4, 1% DMSO) 10 min at 37 °C, then 10 uL of 6.6 uM tPA, 30 min at 37 °C; NuPAGE 4-12% Bis-Tris gel, Coomassie, densitometry; row is for the sample without …; both purified

binding: binds
Substance: wild type PAI-1 (plasminogen activator inhibitor-1) (from UniProt P05121 24-402)
